Test results reported in doi:10.1101/2024.08.31.610644.
Read-outs that look alike come from different tables or passages of the source. No constants are given. Whether binding was seen depends on the method and setting. Some results given as binding are weak or reduced against the parent protein; the word gives no strength. For some assays here: Where a sequence is shown, tags or fusion partners need not be part of it.

Amino acid sequences for entries named in this document (tags omitted).
UniProt Q9SP32: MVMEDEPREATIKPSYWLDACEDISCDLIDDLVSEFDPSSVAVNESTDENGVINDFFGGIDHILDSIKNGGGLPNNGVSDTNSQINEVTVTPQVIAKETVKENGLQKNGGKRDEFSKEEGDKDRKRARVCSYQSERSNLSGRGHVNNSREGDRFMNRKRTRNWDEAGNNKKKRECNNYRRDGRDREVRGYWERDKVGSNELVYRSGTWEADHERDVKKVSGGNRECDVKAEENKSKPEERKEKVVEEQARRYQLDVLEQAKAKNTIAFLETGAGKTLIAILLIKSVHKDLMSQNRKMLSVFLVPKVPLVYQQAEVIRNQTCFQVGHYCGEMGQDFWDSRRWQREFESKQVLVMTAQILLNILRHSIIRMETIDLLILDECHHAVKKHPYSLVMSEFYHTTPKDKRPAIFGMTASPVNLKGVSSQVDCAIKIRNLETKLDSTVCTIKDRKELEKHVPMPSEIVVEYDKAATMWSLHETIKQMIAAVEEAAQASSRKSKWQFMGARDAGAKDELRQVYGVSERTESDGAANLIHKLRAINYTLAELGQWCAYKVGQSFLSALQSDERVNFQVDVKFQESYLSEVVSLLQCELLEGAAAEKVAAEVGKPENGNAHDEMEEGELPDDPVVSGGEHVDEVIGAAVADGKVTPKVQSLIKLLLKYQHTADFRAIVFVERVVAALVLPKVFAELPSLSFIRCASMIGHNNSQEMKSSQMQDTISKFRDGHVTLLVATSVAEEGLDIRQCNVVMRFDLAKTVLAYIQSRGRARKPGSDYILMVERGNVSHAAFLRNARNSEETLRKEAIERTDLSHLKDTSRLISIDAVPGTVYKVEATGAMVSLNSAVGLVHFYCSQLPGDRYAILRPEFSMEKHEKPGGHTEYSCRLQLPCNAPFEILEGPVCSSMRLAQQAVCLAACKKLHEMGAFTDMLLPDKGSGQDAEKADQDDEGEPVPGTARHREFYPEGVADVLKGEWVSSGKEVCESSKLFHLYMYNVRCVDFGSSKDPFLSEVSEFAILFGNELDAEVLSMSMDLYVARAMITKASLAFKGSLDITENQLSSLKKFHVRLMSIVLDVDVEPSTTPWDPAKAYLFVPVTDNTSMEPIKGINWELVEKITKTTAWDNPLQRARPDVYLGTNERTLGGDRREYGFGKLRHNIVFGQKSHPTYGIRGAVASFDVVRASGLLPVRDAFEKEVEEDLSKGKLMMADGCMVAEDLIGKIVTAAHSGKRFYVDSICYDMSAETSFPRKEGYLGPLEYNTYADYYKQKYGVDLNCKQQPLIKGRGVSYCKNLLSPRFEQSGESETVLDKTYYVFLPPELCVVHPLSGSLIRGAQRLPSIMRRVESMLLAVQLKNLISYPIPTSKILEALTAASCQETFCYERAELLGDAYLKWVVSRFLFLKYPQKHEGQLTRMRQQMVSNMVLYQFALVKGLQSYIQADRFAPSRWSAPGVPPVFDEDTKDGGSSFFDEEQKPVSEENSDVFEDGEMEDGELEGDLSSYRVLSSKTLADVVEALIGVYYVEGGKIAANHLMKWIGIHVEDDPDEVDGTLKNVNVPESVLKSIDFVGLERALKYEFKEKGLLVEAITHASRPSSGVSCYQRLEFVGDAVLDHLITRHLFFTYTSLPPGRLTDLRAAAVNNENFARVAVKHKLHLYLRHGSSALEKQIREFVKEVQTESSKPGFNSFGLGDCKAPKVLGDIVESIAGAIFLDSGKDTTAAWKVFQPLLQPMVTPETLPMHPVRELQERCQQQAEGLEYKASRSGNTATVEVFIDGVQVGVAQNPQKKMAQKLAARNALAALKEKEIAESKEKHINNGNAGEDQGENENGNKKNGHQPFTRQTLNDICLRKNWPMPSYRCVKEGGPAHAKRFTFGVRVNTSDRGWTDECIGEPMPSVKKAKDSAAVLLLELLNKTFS
UniProt O82486: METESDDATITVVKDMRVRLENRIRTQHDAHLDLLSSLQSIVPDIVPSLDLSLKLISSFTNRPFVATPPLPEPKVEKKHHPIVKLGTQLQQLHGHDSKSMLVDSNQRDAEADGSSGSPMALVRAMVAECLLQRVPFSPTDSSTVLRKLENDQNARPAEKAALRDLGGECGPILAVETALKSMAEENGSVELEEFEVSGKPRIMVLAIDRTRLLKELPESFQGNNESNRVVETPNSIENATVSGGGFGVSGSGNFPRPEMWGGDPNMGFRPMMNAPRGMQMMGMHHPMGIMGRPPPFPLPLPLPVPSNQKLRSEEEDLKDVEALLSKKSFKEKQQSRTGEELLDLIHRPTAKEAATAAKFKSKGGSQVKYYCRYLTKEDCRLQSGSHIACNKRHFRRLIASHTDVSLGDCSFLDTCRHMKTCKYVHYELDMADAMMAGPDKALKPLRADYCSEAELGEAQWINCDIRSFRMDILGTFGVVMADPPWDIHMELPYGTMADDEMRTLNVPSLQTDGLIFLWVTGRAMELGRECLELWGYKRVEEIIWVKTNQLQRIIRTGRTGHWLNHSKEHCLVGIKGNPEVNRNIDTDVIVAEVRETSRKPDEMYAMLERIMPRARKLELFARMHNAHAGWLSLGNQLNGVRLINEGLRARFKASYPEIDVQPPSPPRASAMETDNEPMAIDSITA

Experiments:
Assay in all cases: two-hybrid
[1] = biological target: T1, SERRATE (SE), yeast two-hybrid fusion (Arabidopsis thaliana) (UniProt Q9ZVD0)
T1 sequence: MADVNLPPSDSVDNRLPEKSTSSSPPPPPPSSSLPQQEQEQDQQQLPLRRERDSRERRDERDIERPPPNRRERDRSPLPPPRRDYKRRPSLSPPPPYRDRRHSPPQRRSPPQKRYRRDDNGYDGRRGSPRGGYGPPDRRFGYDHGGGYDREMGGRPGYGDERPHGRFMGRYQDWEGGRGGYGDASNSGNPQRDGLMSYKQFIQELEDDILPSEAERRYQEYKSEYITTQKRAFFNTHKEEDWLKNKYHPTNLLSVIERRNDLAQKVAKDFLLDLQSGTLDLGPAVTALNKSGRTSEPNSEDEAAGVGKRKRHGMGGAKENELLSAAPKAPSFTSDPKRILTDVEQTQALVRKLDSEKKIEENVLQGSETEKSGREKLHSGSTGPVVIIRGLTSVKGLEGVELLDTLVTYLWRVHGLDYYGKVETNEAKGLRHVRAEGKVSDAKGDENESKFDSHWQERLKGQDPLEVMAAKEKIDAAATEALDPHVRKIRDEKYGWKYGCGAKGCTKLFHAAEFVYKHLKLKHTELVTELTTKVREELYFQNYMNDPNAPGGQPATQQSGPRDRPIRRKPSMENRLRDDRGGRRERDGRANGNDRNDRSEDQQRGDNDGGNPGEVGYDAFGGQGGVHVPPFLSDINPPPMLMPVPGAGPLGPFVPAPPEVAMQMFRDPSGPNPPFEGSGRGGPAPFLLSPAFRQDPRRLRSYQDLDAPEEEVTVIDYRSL

[2] = biological target: SE-R718A, yeast two-hybrid fusion (Arabidopsis thaliana) (UniProt Q9ZVD0)
[3] = biological target: T1, SERRATE (SE), yeast two-hybrid fusion (Arabidopsis thaliana); remark: listed apart in the source

For “DCL1, yeast two-hybrid fusion (from UniProt Q9SP32 1-1909)”, the binding [1] was “binds” and the binding [2] was “binds”.

With “mRNA adenosine methylase A (MTA), yeast two-hybrid fusion (from UniProt O82486 1-685)” the binding [1] was “no binding”.

B1: evolutionarily conserved C-terminal region 2 (ECT2), yeast two-hybrid fusion (protein, UniProt Q9LJE5 1-667)
chain: MATVAPPADQATDLLQKLSLDSPAKASEIPEPNKKTAVYQYGGVDVHGQVPSYDRSLTPMLPSDAADPSVCYVPNPYNPYQYYNVYGSGQEWTDYPAYTNPEGVDMNSGIYGENGTVVYPQGYGYAAYPYSPATSPAPQLGGEGQLYGAQQYQYPNYFPNSGPYASSVATPTQPDLSANKPAGVKTLPADSNNVASAAGITKGSNGSAPVKPTNQATLNTSSNLYGMGAPGGGLAAGYQDPRYAYEGYYAPVPWHDGSKYSDVQRPVSGSGVASSYSKSSTVPSSRNQNYRSNSHYTSVHQPSSVTGYGTAQGYYNRMYQNKLYGQYGSTGRSALGYGSSGYDSRTNGRGWAATDNKYRSWGRGNSYYYGNENNVDGLNELNRGPRAKGTKNQKGNLDDSLEVKEQTGESNVTEVGEADNTCVVPDREQYNKEDFPVDYANAMFFIIKSYSEDDVHKSIKYNVWASTPNGNKKLAAAYQEAQQKAGGCPIFLFFSVNASGQFVGLAEMTGPVDFNTNVEYWQQDKWTGSFPLKWHIVKDVPNSLLKHITLENNENKPVTNSRDTQEVKLEQGLKIVKIFKEHSSKTCILDDFSFYEVRQKTILEKKAKQTQKQVSEEKVTDEKKESATAESASKESPAAVQTSSDVKVAENGSVAKPVTGDVVANGC
In the case of B1, the binding [3] is reported as “binds”.

B2: FK506-BINDING PROTEIN 12 KD … PROTEIN 37KD (FIP37), yeast two-hybrid fusion (protein, UniProt Q9ZSZ8 1-330)
chain: MEFSSQDDDFGGDDSAANATRASGNRRSFGDLEDDEDDIFGSTTVAPGVRTGMILSLRGSLKNCKDDLASCQNELESAKTEIQKWKSAFQNESFVPAGKSPEPRFLIDYIQNLKSSEKSLKEQLEIAKRKEASCIVQYAKREQEMAELKSAVRDLKSQLKPASMQARRLLLDPAIHEEFSRLKNLVEEKDKKIKELQDNIAAVTFTPQSKNGKMLMAKCRTLQEENEEIGHQAAEGKIHELAIKLAMQKSQNAELRSQFEGLYKHMEELTNDVERSNETVIILQEKLEEKEKEIERVKKGLEIVSELVGDKKDEVDEIDEDAKEEIAGGE
B2 was tested, and the binding [3] was “binds”.
